No constants are given. Whether binding was seen depends on the method and setting. Binding seen in cells or lysates may run through a third protein. Here binding means that the protein was enriched with, or labelled near, the bait; the list need not be complete. Where a sequence is shown, tags or fusion partners need not be part of it.
Molecular target: T1, Flag-GFP-tagged IRF9 (F-G-IRF9) (human) (UniProt Q00978)
T1 sequence: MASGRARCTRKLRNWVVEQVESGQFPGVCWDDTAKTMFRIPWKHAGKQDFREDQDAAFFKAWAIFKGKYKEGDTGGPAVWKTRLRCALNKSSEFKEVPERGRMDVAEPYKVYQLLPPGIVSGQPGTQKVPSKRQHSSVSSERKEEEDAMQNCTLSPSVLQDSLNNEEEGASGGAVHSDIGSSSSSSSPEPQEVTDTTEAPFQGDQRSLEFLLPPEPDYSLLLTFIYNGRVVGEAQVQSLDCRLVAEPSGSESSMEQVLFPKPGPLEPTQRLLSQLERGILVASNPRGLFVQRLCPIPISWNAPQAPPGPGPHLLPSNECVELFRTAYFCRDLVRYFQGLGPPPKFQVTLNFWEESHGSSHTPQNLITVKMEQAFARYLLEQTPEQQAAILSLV
Assay: affinity purification with mass spectrometry

binding: binds
B1: PTP1B, endogenous (enzyme, UniProt P18031 1-435)
chain: MEMEKEFEQIDKSGSWAAIYQDIRHEASDFPCRVAKLPKNKNRNRYRDVSPFDHSRIKLHQEDNDYINASLIKMEEAQRSYILTQGPLPNTCGHFWEMVWEQKSRGVVMLNRVMEKGSLKCAQYWPQKEEKEMIFEDTNLKLTLISEDIKSYYTVRQLELENLTTQETREILHFHYTTWPDFGVPESPASFLNFLFKVRESGSLSPEHGPVVVHCSAGIGRSGTFCLADTCLLLMDKRKDPSSVDIKKVLLEMRKFRMGLIQTADQLRFSYLAVIEGAKFIMGDSSVQDQWKELSHEDLEPPPEHIPPPPRPPKRILEPHNGKCREFFPNHQWVKEETQEDKDCPIKEEKGSPLNAAPYGIESMSQDTEVRSRVVGGSLRGAQAASPAKGEPSLPEKDEDHALSYWKPFLVNMCVATVLTAGAYLCYRFLFNSNT

— publication doi:10.1101/2024.06.14.24308555
